Source: US20240058318A1, “DEGRADING PKCB1 TO TREAT CANCER” (Mayo Foundation for Medical Education and Research, priority 2020, published 2024)
At least one structure is not confirmed: it was looked up by name or label, or the drawing left a doubt. Some of these results come from one statement about several compounds together.

Protein sequences, listed by entry. Tags and fused reporters are not part of them.
UniProt P05771, whole entry: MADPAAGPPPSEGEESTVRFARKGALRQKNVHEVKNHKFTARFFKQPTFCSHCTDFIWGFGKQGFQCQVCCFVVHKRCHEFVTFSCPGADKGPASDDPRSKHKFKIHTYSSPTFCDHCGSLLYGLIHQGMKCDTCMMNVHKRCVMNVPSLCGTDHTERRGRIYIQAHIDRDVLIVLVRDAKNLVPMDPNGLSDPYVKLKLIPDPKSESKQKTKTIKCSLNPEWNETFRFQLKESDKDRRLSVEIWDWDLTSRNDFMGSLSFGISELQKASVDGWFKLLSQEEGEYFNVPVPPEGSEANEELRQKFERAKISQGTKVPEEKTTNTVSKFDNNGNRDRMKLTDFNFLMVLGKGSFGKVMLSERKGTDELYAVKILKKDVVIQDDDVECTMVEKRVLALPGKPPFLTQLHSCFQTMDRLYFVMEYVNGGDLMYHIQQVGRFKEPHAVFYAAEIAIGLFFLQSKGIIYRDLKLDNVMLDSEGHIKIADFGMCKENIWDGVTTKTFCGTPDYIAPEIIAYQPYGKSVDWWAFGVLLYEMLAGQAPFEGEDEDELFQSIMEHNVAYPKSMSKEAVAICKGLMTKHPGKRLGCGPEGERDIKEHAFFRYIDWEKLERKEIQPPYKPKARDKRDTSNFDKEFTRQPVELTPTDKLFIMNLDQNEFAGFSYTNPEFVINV

Tests used:
Type in all cases: cell-based
[1] = target: T1, PKCβ1 (Homo sapiens, UniProt P05771); assay: Western blot, PKCβ1 in MDAMB231 and BT549 cells; settings: 1 μM, within 72 hours
T1 construct: western blots showing expression of PKCβ1 in MCF7AC1 cells treated with 1 μM concentration of the ENDX-PROTACs or ENDX; endogenous in cells; host or cells: MCF7AC1 (ER+ breast cancer cells)

[2] = system: E2F1; assay: Western blot, E2F1 in MDAMB231 and BT549 cells; settings: 1 μM, up to 72 hours
[3] = system: ER-stress induced UPR pathway; assay: Western blot of UPR pathway proteins in MDA-MB-231 cells; settings: 1 μM, 1-48 hours
Procedure: Triple negative breast cancer MDA-MB-231 cells were cultured in phenol-red free DMEM/F12 medium supplemented with 10% FBS and 1% AA. Cells were plated at 1×10^6 cells per 10 cm dish. The next day, the cells were treated with DMSO, 1 μM Pr-7 or 1 μM ENDX for 1, 8, 24, and 48 hours, and were then processed for RNA and RIPA protein analysis.
For western blotting, 30 μg of protein lysates were run on Criterion precast 10% Bis-Tris gel, transferred to PVDF membrane, incubated in TBST-5% milk for one hour followed by overnight incubation with phospho-IRE1α (Sigma SAB5700519, rabbit, 1:1000), IRE1α (CS3294, rabbit, 1:1000), phospho-eIF2α (CS3398, rabbit, 1:1000), eIF2α (CS5324, rabbit, 1:1000), CHOP (CS2895, mouse, 1:1000), PUMA (SC374223, mouse, 1:200), NOXA (CS14766, rabbit, 1:1000), E2F1 (SC251, mouse, 1:250), BCL2 (SC7382, 1:200), cleaved PARP (CS5625, rabbit, 1:1000), PARP (CS9542, rabbit, 1:1000), PKCβ1 (SC8049, mouse, 1:200), PKCδ (CS2058, rabbit, 1:1000) and Actin (Sigma A2228, mouse, 1:10,000) primary antibodies in TBST-5% BSA solution. Membranes were washed in TBS-T, incubated for one-hour in HRP-linked anti-rabbit or anti-mouse secondary antibodies in TBST-5% milk, and washed with TBS-T. Bands were developed using west-pico or west-femto chemiluminescent substrate reagents.

[4] = system: Rb-proficient (MDAMB231) and Rb-deficient (BT549 and MDAMB436) TNBC cells; assay: CV proliferation assay, TNBC cells (statements across lines)
Procedure: (§1) Cell proliferation rates were determined using crystal violet assays. One thousand cells per well were plated in 96 well tissue culture plates and treated the following day with a bifunctional compound or control for 7 days in replicates of 8. Cells were fixed with 25% glutaraldehyde for 10 minutes with shaking, washed 5 times with distilled water, stained with a 1% crystal violet solution (solubilized in 25% methanol) for 10 minutes, washed again 5 times and allowed to dry. De-staining was performed using […] sodium citrate in 50% ethanol followed by quantification using a 96 well spectrophotometer set at an absorbance of 550 nm.
as §1, with “using CV” for “using crystal violet”, “assays. Two” for “assays. One”, “thousand (2000) or 4000” for “thousand”, “for 6” for “for 7”, “of 6.” for “of 8.”

[5] = system: MDAH-2774 and KURAMOCHI ovarian cancer cells; assay: CV proliferation assay, ovarian cancer cells (statements across lines); settings: MDAH-2774 and KURAMOCHI cells
Procedure: as §1
Based on the potent anti-proliferative activity of ENDX-PROTACs TC-Pr-006, TC-Pr-007, TC-Pr -008, and TC-Pr -009 in TNBC cells, the efficacy of these compounds for inhibiting the growth of ovarian cancer cells was tested. This analysis utilized KURAMOCHI cells, which represent the high-grade serous subtype (the most malignant form that accounts for 70% of all ovarian cancers and associates with poor clinical outcome) and MDAH-2774 cells, which represent endometrioid ovarian cancer and accounts for 20% of all ovarian cancer. PKCβ1 was confirmed to be expressed in both ovarian cancer cell line models, with MDAH-2774 cells expressing higher amounts of PKCβ1 compared to KURAMOCHI cells (FIG. 5A).

Row | Structure (SMILES) | PKCβ1 polypeptide expression/degradation [1] | E2F1 polypeptide levels [2] | activation of ER-stress induced UPR pathway [3] | concentration inhibiting growth of TNBC cells [4] | concentration inhibiting growth of ovarian cancer cells [5]
1 | CC/C(=C(\c1ccc(O)cc1)c1ccc(OCCNC)cc1)c1ccccc1 [ENDX, endoxifen, reference compound] | impacted neither PKCβ1 polypeptide nor E2F1 polypeptide expression | impacted neither PKCβ1 polypeptide nor E2F1 polypeptide expression | no impact |  | 
2 | CC/C(=C(\c1ccc(O)cc1)c1ccc(OCCN(C)C(=O)COCCOCCNC(=O)c2ccc3c(c2)CN([C@H]2CCC(=O)NC2=O)C3=O)cc1)c1ccccc1 [TC-Pr-006] |  |  |  | < 1 µM | 
3 | CC/C(=C(\c1ccc(O)cc1)c1ccc(OCCN(C)C(=O)COCCNC(=O)Cc2ccc3c(c2)CN(C2CCC(=O)NC2=O)C3=O)cc1)c1ccccc1 (centres unmarked) [TC-Pr-007] |  |  |  | < 1 µM | ≤ 1 µM
4 | CC/C(=C(\c1ccc(O)cc1)c1ccc(OCCN(C)C(=O)CCOCCNC(=O)Cc2ccc3c(c2)CN([C@H]2CCC(=O)NC2=O)C3=O)cc1)c1ccccc1 [TC-Pr-008] |  |  |  | < 1 µM | ≤ 1 µM
